In assay [1] the target is Cullin2 (CUL2), endogenous in mouse ESCs (mouse (endogenous in E14 ESCs)) (UniProt Q9D4H8). The assay is described as follows: affinity purification with mass spectrometry.
Assay [2] deals with T1, HA/FLAG-PRAMEL7ΔN, one transgene copy in the Rosa26 locus of mouse ESCs (ESC+H/F-Pramel7ΔN) (mouse) (UniProt Q810Y8).
T1 sequence: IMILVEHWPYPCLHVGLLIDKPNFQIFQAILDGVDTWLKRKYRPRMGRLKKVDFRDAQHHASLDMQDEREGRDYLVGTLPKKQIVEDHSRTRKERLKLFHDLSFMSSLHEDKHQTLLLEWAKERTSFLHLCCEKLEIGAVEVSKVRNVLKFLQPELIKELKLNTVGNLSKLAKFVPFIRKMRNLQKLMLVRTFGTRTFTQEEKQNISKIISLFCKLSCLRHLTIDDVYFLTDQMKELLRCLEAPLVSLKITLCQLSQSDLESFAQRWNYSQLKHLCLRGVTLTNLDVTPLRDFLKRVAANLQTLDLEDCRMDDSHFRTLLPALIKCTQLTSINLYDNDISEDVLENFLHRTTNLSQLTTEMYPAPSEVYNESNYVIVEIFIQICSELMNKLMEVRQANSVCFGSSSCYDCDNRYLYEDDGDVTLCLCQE
The assay is described as follows: affinity purification with mass spectrometry.

Amino acid sequences for entries named in this document (tags omitted).
UniProt Q9D4H8: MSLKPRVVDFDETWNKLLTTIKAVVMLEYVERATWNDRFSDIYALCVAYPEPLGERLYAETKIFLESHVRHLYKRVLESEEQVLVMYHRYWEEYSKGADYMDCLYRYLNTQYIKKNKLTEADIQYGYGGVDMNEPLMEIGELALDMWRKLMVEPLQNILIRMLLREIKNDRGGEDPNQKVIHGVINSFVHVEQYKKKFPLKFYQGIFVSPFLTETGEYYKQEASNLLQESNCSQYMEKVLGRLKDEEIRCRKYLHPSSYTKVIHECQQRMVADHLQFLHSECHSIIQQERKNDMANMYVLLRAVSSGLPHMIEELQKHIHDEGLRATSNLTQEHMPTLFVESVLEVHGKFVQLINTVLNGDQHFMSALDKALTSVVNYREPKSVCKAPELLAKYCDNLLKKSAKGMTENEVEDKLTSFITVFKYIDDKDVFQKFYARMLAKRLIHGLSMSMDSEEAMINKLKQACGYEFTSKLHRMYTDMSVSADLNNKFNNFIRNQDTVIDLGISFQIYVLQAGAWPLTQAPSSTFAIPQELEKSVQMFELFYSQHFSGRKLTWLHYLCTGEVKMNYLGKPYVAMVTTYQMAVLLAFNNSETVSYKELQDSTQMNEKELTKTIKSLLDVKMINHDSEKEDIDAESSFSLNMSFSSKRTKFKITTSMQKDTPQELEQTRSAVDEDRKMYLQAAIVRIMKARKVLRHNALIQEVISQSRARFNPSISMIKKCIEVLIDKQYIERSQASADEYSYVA

These are yes or no findings as the source states them, for the method shown. Binding seen in cells or lysates may run through a third protein. Here binding means that the protein was enriched with, or labelled near, the bait; the list need not be complete. For part of these data: Tags and fused reporters may be left off the sequences shown.

B1: UHRF1, endogenous in mouse ESCs (protein, UniProt Q8VDF2 1-782)
chain: MWIQVRTMDGKETHTVNSLSRLTKVQELRKKIEEVFHVEPQLQRLFYRGKQMEDGHTLFDYDVRLNDTIQLLVRQSLALPLSTKERDSELSDSDSGYGVGHSESDKSSTHGEGAAEADDKTVWEDTDLGLYKVNEYVDVRDNIFGAWFEAQVVQVQKRALSEDEPCSSSAVKTSEDDIMYHVKYDDYPEHGVDIVKAKNVRARARTVIPWENLEVGQVVMANYNVDYPRKRGFWYDVEICRKRQTRTARELYGNIRLLNDSQLNNCRIMFVDEVLMIELPKERRPLIASPSQPPPALRNTGKSGPSCRFCKDDENKPCRKCACHVCGGREAPEKQLLCDECDMAFHLYCLKPPLTSVPPEPEWYCPSCRTDSSEVVQAGEKLKESKKKAKMASATSSSRRDWGKGMACVGRTTECTIVPANHFGPIPGVPVGTMWRFRVQVSESGVHRPHVAGIHGRSNDGAYSLVLAGGYEDDVDNGNYFTYTGSGGRDLSGNKRTAGQSSDQKLTNNNRALALNCHSPINEKGAEAEDWRQGKPVRVVRNMKGGKHSKYAPAEGNRYDGIYKVVKYWPERGKSGFLVWRYLLRRDDTEPEPWTREGKDRTRQLGLTMQYPEGYLEALANKEKSRKRPAKALEQGPSSSKTGKSKQKSTGPTLSSPRASKKSKLEPYTLSEQQANLIKEDKGNAKLWDDVLTSLQDGPYQIFLSKVKEAFQCICCQELVFRPVTTVCQHNVCKDCLDRSFRAQVFSCPACRFELDHSSPTRVNQPLQTILNQLFPGYGSGR
Take B1: the binding entry in assay [1] and in assay [2] was “binds” each time.

B2: SND1, endogenous in mouse ESCs (protein, UniProt Q78PY7 1-910)
chain: MASSAQSSGSSGGPAVPTVQRGIVKMVLSGCAIIVRGQPRGGPPPERQINLSNIRAGNLARRAAATQPDGKDTPDEPWAFPAREFLRKKLIGKEVCFTIENKTPQGREYGMIYLGKDTNGENIAESLVAEGLATRREGMRANNPEQNRLSECEEQAKASKKGMWSEGNGSHTIRDLKYTIENPRHFVDSHHQKPVNAIIEHVRDGSVVRALLLPGHHLVTVMLSGIKCPTFRRETDGSETPEPFAAEAKFFTESRLLQRDVQIILESCHNQNLLGTILHPNGNITELLLKEGFARCVDWSIAVYTRGAEKLRAAERFAKERRLRIWRDYVPPTANLDQKDKQFVAKVMQVLNADAIVVKLNSGDYKTIHLSSIRPPRLEGDNIQDKNKKLRPLYDIPYMFEAREFLRKKLIGKKVNVTVDYIRPASPATETVPAFSERTCATVTIGGINIAEALVSKGLATVIRYRQDDDQRSSHYDELLAAEARAIKNGKGLHSKKEVPIHRVADISGDTQKAKQFLPFLQRAGRSEAVVEYVFSGSRLKLYLPKETCLITFLLAGIECPRGARNLPGLVQEGEPFSEEATLFTKELVLQREVEVEVESMDKAGNFIGWLHMDGANLSVLLVEQALSKVHFTAERSAYYKPLLSAEEAAKQRKEKVWAHYEERPVEEVMPVLEEKERSASYKPVFVTEITDDLHFYVQDVETGTQLEKLMENMRNDISSHPPVEGSYAPRRGEFCIAKFVDGEWYRARVEKVESPAKVHVFYIDYGNREILPSTRLGTLPPAFSTRVLPAQATEYAFAFIQVPQDEDARTDAVDSVVRDIQNTQCLLNVEHLSASCPHVTLQFADSKGDVGLGLVKEGLVMVEVRKEKQFQKVITEYLNAQESAKSARLNLWRYGDFRADDADEFGYSR
On to B2, for which the binding result in assay [1] and in assay [2] was “binds” each time.

B3: NOP2, endogenous in mouse ESCs (protein, UniProt Q922K7 1-793)
chain: MGRKLDPTKKEKRGPGRKARKQKGAETELVRFLPAAGDENSKRLSSRARKRAAKRRAGSVDVPKPNKSPGIKTLPGELSKGAVQARGKKRPAPIQNSDGDEEEDSGEDDVVTQGDLWGSEDSDEDMVDDYGAASNSEDEEEKLLPIERAALKQKAQDATAGVLWNEEDTDEDEDDDGVSPESHPRKDDKAEGDLQINVEDEEAFVLPPAGETDQDGQAPDLQRVHKRIQDIVGVLRDFGAQREEGRSRAEYLSRLQKDLATYYSYGDFLLSKLMELFPLSELIEFLEANEVPRPITLRTNTLKTRRRDLAQLLINRGVNLDPLGKWSKSGLVVYDSSVPIGATPEYLAGHYMLQGASSMLPVMALAPQEHERILDMCCAPGGKTSYIAQLMKNTGVILANDANADRLKSVVGNLHRLGVTNTIISHYDGRQFPKVVGGFDRVLLDAPCSGTGVISKDPAVKTNKDEKDIQRCAHLQKELLLSAIDSVNAASKTGGYLVYCTCSITVEENEWVVDYALKKRNVRLVPTGLDFGQEGFTRFQARRFHPTLRSTRRFYPHTHNMDGFFIAKFKKFSNSIPQPHAGNSAAATPTEPDLKDQVTPKSENGSQPTKKARGAVKAKQQLLRQPHSKKPFQKLNGIAKGPGLSTEPSVPDAQVSTRPSQSAGNADVNSKRKRSEKLKQRGPKWKPSKEAAVPKPSAPSRVEDSGTPVPTPSEIRAAPRPKDCAPSLGKAKKKQKGKQQLAQQPANGAAPLKEDAVSKGPSAPFVSPHSSTRPPPAKRRKSMTKGNSQPLLS
Regarding B3, the binding entry in assay [1] and in assay [2] was “binds” throughout.
